± gives the half width of the 95% confidence interval. The two proteases of the assay disagree for many of these sequences.
Assays:
[1] = folding stability dG unfold from chymotrypsin proteolysis; higher = more stable
In short: (§1)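 How resistant each design was to proteolysis was captured as K50, inferred by Bayesian fitting of sequencing counts. Unfolding free energy was then derived relative to a sequence-predicted unfolded-state K50 and a shared folded-state K50, per protease or combined. Digestion used trypsin and chymotrypsin at 11 threefold-diluted concentrations plus a no-protease condition, on mini-proteins under 80 residues without cysteine in a PA-tagged cDNA display construct. Designs were kept only when AlphaFold2 dimer inter-PAE was above 15.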

[2] = folding stability dG unfold from trypsin proteolysis; higher = more stable
In short: as §1

[3] = folding stability dG unfold (combined trypsin and chymotrypsin); higher = more stable
In short: as §1

Sequence	folding stability dG unfold [1] [kcal/mol]	folding stability dG unfold [2] [kcal/mol]	folding stability dG unfold [3] [kcal/mol]
SAGGVDKGPPDAEVSREVLPRKLPNGKELLEEIRTRVLASGSLLVDRTIRDPNSDKVESEELVDPGASAGGS [r8_129_JUSTAS]	-0.0363 ± 0.16	0.021 ± 0.31	-0.0613 ± 0.32
SAKIEIYTHPDGMMEITFELDGRKITITMNPKEGWMMVEVYDPPNGEVVKTIPIPMGDLEDTIKEIIDKSAG [r14_583_TrROS]	4.35 ± 0.23	2.03 ± 0.17	3.77 ± 0.53
SAGGSAGGSAKKKKIKNKKKKVFKIELKIEVELKKLPNGTVVLKAKIEINGKKYELELVLKPSAGGSAGGSA [r18_335_TrROS_Hall]	4.6 ± 0.15	2.41 ± 0.14	4.38 ± 0.39
SAGGSAGGSAGGGMIPVSTSETVVPGPSRLVRRTTTTYRDPVTGKLYTTSSTTVLPPAASAGGSAGGSAGGS [r10_190_JUSTAS]	1.44 ± 0.064	-0.396 ± 0.12	0.963 ± 0.045
SAGGSAGGSAPDLRLTSESLFLLPDGYLLVVRRTFDPRGEDDVEVEVRVFPLGPLRPPPEARSAGGSAGGSA [r18_409_TrMRF]	3.14 ± 0.11	0.622 ± 0.4	2.84 ± 0.15
SAGGMPKPVTLPAVIELGAGPAIAVEEFPETGKLVFVFPPTHRIFVFDPNGKLVAEVDVPPDVPVSAVSAGG [r13_507_TrMRF]	0.973 ± 0.31	0.901 ± 0.053	0.931 ± 0.15
SAKKVIIFFRSPEELIDQIKEAASNGEPVEVMFNDPGGYYWHITIEVPPKNGKIKIDEIEPKPISDDDFSAG [r14_455_TrROS]	4.01 ± 0.12	1.63 ± 0.074	3.18 ± 0.31
SAGGSAGGSAGGMEIIEKEETLDEETLKKLEEEGVPKSEATVKVTEVIYKEEYPEEGLKSAGGSAGGSAGGS [r10_1149_JUSTAS]	-0.692 ± 0.28	0.359 ± 0.072	-0.137 ± 0.34
SAGGKAEEIAKKLAEELRKKYNIEKVEITVEEKDGKLTITITVKFKGKPNKTIKITIEFKPKKKKKKSAGGS [r16_397_TrROS_Hall]	5.01 ± 0.12	1.39 ± 0.069	4.51 ± 0.3
SHYIFMRVEVEPPNGEKREREVPVDFPPGETMSEFLDDLNIPAEGIDKVKIEMYMWDNGKPEVMEMTITVSA [r9_755_TrROS]	4.35 ± 0.071	2.1 ± 0.12	3.55 ± 0.19
SAGGSAGGSAGGTTTTVTFSSEEEAKKLAEEYKKKGYKVEITEDPATGKVTLTITIKPKGSAGGSAGGSAGG [r7_623_JUSTAS]	4.73 ± 0.1	2.09 ± 0.17	4.5 ± 0.21
SGVRTALGRARIERLPDGSVRLELDLLTEPPSGRVVRRRLRFVFYPGSGRVGVEPETEVLPVPPGAPGLGSA [r9_709_TrMRF]	3.99 ± 0.071	1.03 ± 0.077	3.35 ± 0.1
SAGGSAGGSAGKKYKIKVEVNGKLFEVEVSEDVKPGDVIKIEVDGKIIEVPAKNVKVEKVSAGGSAGGSAGG [r11_247_TrROS_Hall]	3.24 ± 0.12	1.1 ± 0.067	2.82 ± 0.16
SAGGSAGGSEIKEGEKVTLEITLLVYDKETKRYYLVRMEIVVDAKTNEIVEMKMEVYELPEEPSAGGSAGGS [r12_868_TrROS_Hall]	5.74 ± 0.13	3.16 ± 0.3	5.83 ± 0.97
SAGMVLLTVPAEEMTEEEAEAIAETIEKAFPFLRIKSAEELVVPAPDDRPVRMRVLLIDAELPLPPELLSAG [r5_835_TrMRF]	2.21 ± 0.078	0.116 ± 0.17	1.43 ± 0.096
SAGGSAGGSAGGVEIVIMFPRGMPPEQFAKMIAKWLRRQGLPPNVKVDIKIIPIDPDDMSAGGSAGGSAGGS [r10_746_TrROS]	3.35 ± 0.066	2.82 ± 0.051	3.15 ± 0.18
SAGGSAGGSAGGEFEVRVVPVLDPNGRPLLLRYIPPLGTVQVFDPRTGKLVATLPAELLSAGGSAGGSAGGS [r10_589_TrMRF]	1.79 ± 0.14	-0.559 ± 0.36	1.42 ± 0.065
SAGGGIVEKIKEIIEKLGVKYEVTETEEGIVITVEADPETYKKIKEEIEKLTGKPVKVLLIKPGESKSAGGS [r16_514_JUSTAS]	4.85 ± 0.14	0.998 ± 0.1	4.61 ± 0.29
SAGGSAGGSGTVTLTLTARFRFRVTRVERRDGKLTVTTVEVEVEVTLTLTLPAPARPDDPALRSAGGSAGGS [r12_713_TrROS_Hall]	5.26 ± 0.12	2.13 ± 0.065	4.9 ± 0.16
SAGGSAGGSAGGAIPSDTEVELELTLVDPRTGKPRRLRVRARVEVRPDGSLVVELEVEPESAGGSAGGSAGG [r7_18_TrMRF]	3.53 ± 0.058	0.641 ± 0.13	3.04 ± 0.096
SAGGSAGGSAGGGSMPVTERIPGSPSSVTTTTFPDGTVTTETTAGPPVTLSPAGGSTLVSAGGSAGGSAGGS [r10_664_JUSTAS]	1.09 ± 0.058	0.97 ± 0.073	1.08 ± 0.11

Sequence	folding stability dG unfold [1] [kcal/mol]	folding stability dG unfold [2] [kcal/mol]	folding stability dG unfold [3] [kcal/mol]
SAGGSAGGKPKTVTLEIEVNGKTYTIEFNEDTKEITITDKETGKKYTIPVDPDQSLEDILKALESAGGSAGG [r6_165_TrROS_Hall]	4.37 ± 0.1	2.3 ± 0.1	4.14 ± 0.2
SAGGIVFSFMLPDGFMIEFDLEWSPGYFKVDVEWYWGNEPQTMERTIPLPPPPPPPVPADNPDDAEEASAGG [r13_691_TrROS]	3.87 ± 0.075	1.17 ± 0.13	3.25 ± 0.33
SAGMTLTIKLPLKPGETVEVEVVSPQGVGATSEVLPDGSVKVTIERPSPSDPPPTLNITVYKKGTGEKVSAG [r14_39_JUSTAS]	3.08 ± 0.077	0.857 ± 0.045	2.04 ± 0.12
SAGGSAGGSSPDWSVKKSTVTVTITFPEEKYFEPETKKEVAKRPVITIEIEIEVVETLPASLISAGGSAGGS [r12_600_JUSTAS]	1.44 ± 0.096	1.65 ± 0.067	1.63 ± 0.19
SAGGSAGGSAGPKIKIKKFPDFLIAEIEFPDGKKATAIFDPKTGKIIVFVGDKPIEIDIGSAGGSAGGSAGG [r11_846_TrMRF]	3.49 ± 0.09	2.16 ± 0.059	3.1 ± 0.07
SAGGSAGGAKVVKPPVTVTLVMKFETEEEARAAAEELRKKYNVTVEISPDGKYVRITVTLPPLPSAGGSAGG [r6_90_TrROS_Hall]	4.44 ± 0.12	1.59 ± 0.029	4 ± 0.14
SAGGNLKIEIEEVYYNPENGILVIMIKISQTYTVPPGELKDPDGKEMPPGATIKVEMYIMIVIFPENSAGGS [r8_262_TrROS]	5.27 ± 0.28	3.14 ± 0.18	5.05 ± 0.22
SAGGSAKIVIKMTPEEIKELAKKLGIKDAKVELVEKKKTKEGEVYVIKITVYENGKKKKEIEIVFPSAGGSA [r15_428_TrROS_Hall]	3.72 ± 0.25	0.869 ± 0.17	2.74 ± 0.39
SAGGSAMKLTLKDKKGNTLFLEVEEKTSEDGTPYYEVKIYYPNTNKVEYAEVPVENLEEFAKKLADSAGGSA [r15_92_TrMRF]	3.31 ± 0.086	3.21 ± 0.09	3.25 ± 0.18
SAMDLKDLNIEKIEEIVKAILEKLGIPPENVEVKVEIKKGPDNSYYIVVEVTVKLGEKTYKFKFLIKGSSAG [r14_703_TrMRF]	4.94 ± 0.21	2.6 ± 0.14	4.5 ± 0.38
SAGGSKAEKIAEFEVDGKKITLYKNEDGSYVIEVEIDGKKVTITVKKDMSLEEIENLLKELKEKAKSAGGSA [r2_243_TrROS_Hall]	4.39 ± 0.22	1.6 ± 0.1	3.93 ± 0.37
SAGNFNIKEQKETDGRRVIEIPMPGSGHEITIVFERNPDGPRKININMNGPMADYLREALPGIDRVEIISAG [r5_933_TrROS]	0.275 ± 0.26	0.187 ± 0.31	0.213 ± 0.22
SAGGMKKGEKVKIEIISVEEKEGKIYFTIRIKNEKTGKYYEIKIEAPSKEDALKAIEELIKEGKIEIKSAGG [r13_286_TrROS_Hall]	4.2 ± 0.22	1.77 ± 0.31	3.92 ± 0.54
SAGGKTIEIEVPKEEAEKIAKKLADELLEEAKKKGKKVKVTITIKNKDGSTYKIVFDSNGKIVKIEKISAGG [r13_965_TrROS_Hall]	3.74 ± 0.063	1.07 ± 0.061	3.34 ± 0.18
SAGGMEEKIKELAEKLGIKEVYPEEEIKKLPEEEKGKIVIVVDEDGNVHIYIILPNGKKIEFTFKVKSAGGS [r16_686_TrROS_Hall]	4.43 ± 0.16	0.899 ± 0.23	3.47 ± 0.57
HIEVTPNGSIYIMFPADDLKDLPPGDPLELKLKIYIPGGYKIKVTWEVVPDGWIMIRIKVEPIPVSPEQNKS [r1_394_TrROS]	5.65 ± 0.18	2.34 ± 0.11	5.33 ± 0.34
SAGGSMPKGQEVKIEIEHRRHNGRRYWRVSVEVPNGKDIEIPFDDPEEMPPEMKKQIENLAKEIVKSAGGSA [r2_17_TrROS]	1.11 ± 0.25	0.146 ± 0.11	0.874 ± 0.26
MRLYLVKVEIRREEVDPETGEVREEKLELTVLVREEDEEALEKAEELARKLAEEEGIKEVKVEVVELPAEES [r1_346_TrROS_Hall]	2.62 ± 0.079	2.3 ± 0.09	2.47 ± 0.25
SAGGSAGGSAGGSMKITKVIEDPALLAAGGYTTTELEDGSVVYTLPNGEVLTEKLPPGLSAGGSAGGSAGGS [r4_373_JUSTAS]	1.5 ± 0.083	-0.957 ± 0.36	0.91 ± 0.13
SAFKIEVYPTKDDGYTVKLTFQHPGYYIEVTITIPPEAAKKGIPLDDIKPIEITEIELIPIPKPDPGDPSAG [r14_856_TrROS]	5.13 ± 0.3	2.34 ± 0.28	4.9 ± 0.56
SAMKVVKKTFPPSVSKEEAIAEAEAELKAKGLEIEEVKVEELPDGTILVTLTVKEKPEMSPEVVEEIKKSAG [r14_110_JUSTAS]	3.49 ± 0.1	0.963 ± 0.025	2.93 ± 0.12

Full records as entered above:
SAGGSAGGSAGGEFEVRVVPVLDPNGRPLLLRYIPPLGTVQVFDPRTGKLVATLPAELLSAGGSAGGSAGGS [r10_589_TrMRF] as listed: folding stability dG unfold [1] [kcal/mol]: 1.79 ± 0.14; folding stability dG unfold [2] [kcal/mol]: -0.559 ± 0.36; folding stability dG unfold [3] [kcal/mol]: 1.42 ± 0.065
SAGGSAGGSEIKEGEKVTLEITLLVYDKETKRYYLVRMEIVVDAKTNEIVEMKMEVYELPEEPSAGGSAGGS [r12_868_TrROS_Hall] as listed: folding stability dG unfold [1] [kcal/mol]: 5.74 ± 0.13; folding stability dG unfold [2] [kcal/mol]: 3.16 ± 0.3; folding stability dG unfold [3] [kcal/mol]: 5.83 ± 0.97
SAGGSAMKLTLKDKKGNTLFLEVEEKTSEDGTPYYEVKIYYPNTNKVEYAEVPVENLEEFAKKLADSAGGSA [r15_92_TrMRF] as listed: folding stability dG unfold [1] [kcal/mol]: 3.31 ± 0.086; folding stability dG unfold [2] [kcal/mol]: 3.21 ± 0.09; folding stability dG unfold [3] [kcal/mol]: 3.25 ± 0.18

Source: the supplement of paper PMC12764529
